Measurements reported in PubChem BioAssay AID485314 (National Center for Advancing Translational Sciences (NCATS), 2010).
In all, about 340,000 compounds went through this assay and about 4,500 (1.3%) were called active. Inconclusive means that the source gave no clear call. Such entries were picked first, then a sample of the others. Calls follow the shape of the dose curve; as a rule, active = well fitted inhibition curve with a large enough effect; inconclusive = small, poorly fitted or top-dose-only effect, or another doubt; inactive = no such curve, though single readings can be large or run the other way. Potencies of inconclusive entries are doubtful fits and often do not repeat.

These compounds were tested against DNA polymerase beta (Homo sapiens) (UniProt P06746) (assay: qHTS Assay for Inhibitors of DNA Polymerase Beta). Conditions: Pol beta primer extension/strand displacement, fluorescence kinetic; series mostly up to 114 µM.
Method in brief: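 Pol beta (10 nM) was preincubated with compound for 15 min at room temperature. The reaction was then started with 50 nM substrate and read immediately and after a further 10 min at room temperature.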
Potency is read from the fitted curve at half-maximal effect.

| Structure (SMILES) | Potency |
| --- | --- |
| CCc1nc(N2CCN(C(=O)c3ccccc3)CC2)c(C#N)c2c1COC(C)(C)C2 | inconclusive: 0.112 µM [inhibitor, full curve, poor fit] |
| COC(=O)CN1C(=O)c2cccc3cccc1c23 | inconclusive: 89.1 µM [inhibitor, single point] |
| Cc1nn(-c2ccccc2)c(C)c1C(=O)NCc1ccccc1F | inconclusive: 20 µM [inhibitor, single point] |
| CC12C(=O)N(c3cccc(OC(=O)c4ccco4)c3)C(=O)C1C1c3ccccc3C2c2ccccc21 (stereo not drawn) | inconclusive: 3.55 µM [inhibitor, single point] |
| CC1=CCC2C(=O)N(c3nc4ccccc4n3C)C(=O)C2C1 (stereo not drawn) | active: 25.1 µM |
| O=C(COC(=O)/C=C/c1ccc(Br)o1)Nc1ccccc1F | active: 25.1 µM |
| COCCn1c(C)cc(C(=O)COC(=O)c2ccc([N+](=O)[O-])o2)c1C | inconclusive: 0.0224 µM [inhibitor, full curve, poor fit] |
| Cc1ccc(-c2nn3c(C)nnc3c3ccccc23)cc1S(=O)(=O)NCc1ccco1 | inconclusive: 25.1 µM [inhibitor, full curve] |
| COc1cc(/C=N/NC(=O)c2cn(-c3cccc(C)n3)cn2)ccc1O | inconclusive: 44.7 µM [inhibitor, partial curve] |
| COc1cc(-c2nc(N)n[nH]2)cc(OC)c1OC | inconclusive: 11.2 µM [inhibitor, partial curve] |
| CC1CCCCC1NC(=S)Nc1cccc(S(=O)(=O)N(C)C)c1 (stereo not drawn) | inconclusive: 89.1 µM [inhibitor, single point] |
| Cc1ccccc1C(=O)Nc1cccc(C(=O)Nc2ccccc2C(=O)O)c1 | inactive |
| CC(=O)Oc1ccc(C(=O)Nc2ccccc2C(=O)Nc2cccc(C(=O)O)c2)cc1 | inactive |
| O=C(CNC(=O)c1ccco1)N/N=C/c1cc(Br)ccc1O | inconclusive: 39.8 µM [inhibitor, full curve] |
| CCCOc1ccc(N)cc1N | inconclusive: 25.1 µM [inhibitor, full curve, poor fit] |
| COc1cccc2cc(C(=O)C3=C(O)C(=O)N(CCN(C)C)C3c3ccc(F)cc3)oc12 (stereo not drawn) | inconclusive: 39.8 µM [inhibitor, single point] |
| Oc1nc(Nc2ccc(Cl)cc2Cl)sc1/C=C1\C=Nc2ccccc21 | inconclusive: 79.4 µM [inhibitor, single point] |
| COc1ccc(CNC(=O)CN2C(=O)CC(c3ccccc3)=Nc3ccccc32)cc1 | inconclusive: 0.501 µM [inhibitor, partial curve, poor fit] |
| Cc1cc(C)c2c(N)c(C(=O)N/N=C/c3cccnc3)sc2n1 | inconclusive: 4.47 µM [inhibitor, full curve, poor fit] |
| O=C(Cc1cccc2ccccc12)N/N=C/c1ccc(Sc2cccc3cccnc23)o1 | inconclusive: 0.1 µM [inhibitor, full curve, poor fit] |
| Cc1ccc(OCC(=O)NCc2ccco2)c([N+](=O)[O-])n1 | inconclusive: 100 µM [inhibitor, single point] |
| Cc1cccc(C(C)C)c1NC(=O)C(NS(=O)(=O)c1cccc2nsnc12)c1ccccc1 (stereo not drawn) | inactive |

Gathered by group: the compounds so far with a COOH group (two)

| Structure (SMILES) | Potency |
| --- | --- |
| Cc1ccccc1C(=O)Nc1cccc(C(=O)Nc2ccccc2C(=O)O)c1 | inactive |
| CC(=O)Oc1ccc(C(=O)Nc2ccccc2C(=O)Nc2cccc(C(=O)O)c2)cc1 | inactive |

Next part.

| Structure (SMILES) | Potency |
| --- | --- |
| COCCOC(=O)c1[nH]c2c(c1C)C(=O)CC(c1ccco1)C2 (stereo not drawn) | active: 11.2 µM |
| CCSc1nc2c([nH]c3ccccc32)c(=O)n1-c1ccc(F)cc1 | inactive |
| CCCCOc1ccc(CNC(=O)c2ccc3c(c2)N(C)C(=O)C2CCCCN32)cc1 (stereo not drawn) | inactive |
| Nn1c(SCC(=O)NC(=O)NCc2ccco2)nnc1-c1ccc(OC(F)F)cc1 | inconclusive: 20 µM [inhibitor, full curve] |
| Cc1ccccc1CSc1ccc(-c2cccs2)nn1 | inconclusive: 0.141 µM [inhibitor, full curve, poor fit] |
| O=c1cc(-c2ccccc2Cl)c2c([nH]1)CCC2 | inconclusive: 22.4 µM [inhibitor, full curve] |
| O=C(CN1CCN(c2ccc([N+](=O)[O-])cc2)CC1)c1ccccc1 | inconclusive: 100 µM [inhibitor, single point] |
| c1cnc(N2CCN(c3ncc4c(n3)CCNC4)CC2)nc1 | active: 44.7 µM |
| COc1ccc(OC)c(-n2nnc(-c3nc(-c4cc(OC)c(OC)c(OC)c4)no3)c2C)c1 | inconclusive: 15.8 µM [inhibitor, full curve] |
| O=C(c1ccccc1)C1CCc2occc2C1=O (stereo not drawn) | inconclusive: 89.1 µM [inhibitor, single point] |
| COc1ccccc1N(C)S(=O)(=O)c1ccc(C(=O)Nc2ccc3nc(C)sc3c2)cc1 | inconclusive: 100 µM [inhibitor, single point] |
| Cc1ccc(CNC(=O)c2ccc(Cn3c(=O)c4ccccc4n(CC(=O)Nc4c(C)cc(C)cc4C)c3=O)cc2)cc1 | inconclusive: 89.1 µM [inhibitor, single point] |
| CC(=O)N1CCc2cc(S(=O)(=O)NC(Cc3ccccc3)C(=O)Nc3cc(C)ccc3C)ccc21 (stereo not drawn) | inconclusive: 89.1 µM [inhibitor, single point] |
| COc1ccc2c(CC(=O)N3CCN(S(=O)(=O)c4cccs4)CC3)coc2c1 | inactive |
| CCOc1ccc2nc(NC(=O)Nc3ccccc3)sc2c1 | inconclusive: 44.7 µM [inhibitor, partial curve] |
| CN1C(=O)c2ccccc2Sc2ccc(NC(=O)N3CCN(c4ccccc4)CC3)cc21 | inactive |
| COc1ccc(NC(=O)CN(c2ccccc2)S(=O)(=O)N(C)C)cc1OC | active: 39.8 µM |
| O=C(O)/C=C/c1cn(-c2ccccc2)nc1-c1ccc(-c2ccc([N+](=O)[O-])cc2)o1 | active: 28.2 µM |
| COc1ccc(-c2cc(-c3ccco3)[nH]c(=O)c2C#N)cc1OC | inconclusive: 39.8 µM [inhibitor, single point] |
| CCc1cc(-c2n[nH]c(C)c2Oc2ccc(C(C)C)cc2)c(O)cc1O | inconclusive: 50.1 µM [inhibitor, partial curve] |
| NS(=O)(=O)c1ccc(Nc2ccc3nonc3c2[N+](=O)[O-])cc1 | inconclusive: 79.4 µM [inhibitor, single point] |
